From the supplement of paper PMC10849652
This is one part of the list.

Sequences of proteins named here, by UniProt entry; tags and fusion partners are left off. A change or cut given only in a name is not applied to a line headed by its entry.
UniProt Q8IU81: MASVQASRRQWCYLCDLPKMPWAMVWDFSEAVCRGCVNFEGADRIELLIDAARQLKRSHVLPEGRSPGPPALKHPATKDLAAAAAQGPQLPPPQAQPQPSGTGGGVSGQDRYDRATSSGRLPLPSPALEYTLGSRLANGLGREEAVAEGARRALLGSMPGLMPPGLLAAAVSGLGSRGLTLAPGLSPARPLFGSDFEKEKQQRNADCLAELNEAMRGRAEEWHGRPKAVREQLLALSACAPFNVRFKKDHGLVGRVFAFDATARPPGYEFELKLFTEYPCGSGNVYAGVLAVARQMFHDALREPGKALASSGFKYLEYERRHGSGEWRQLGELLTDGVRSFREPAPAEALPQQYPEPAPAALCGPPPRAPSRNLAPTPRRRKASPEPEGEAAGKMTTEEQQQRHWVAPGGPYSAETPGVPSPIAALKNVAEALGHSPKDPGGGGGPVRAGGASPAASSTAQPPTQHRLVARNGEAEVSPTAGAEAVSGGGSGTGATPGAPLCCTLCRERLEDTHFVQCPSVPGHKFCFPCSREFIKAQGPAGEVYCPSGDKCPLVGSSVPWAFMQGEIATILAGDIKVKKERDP
UniProt Q9UK53: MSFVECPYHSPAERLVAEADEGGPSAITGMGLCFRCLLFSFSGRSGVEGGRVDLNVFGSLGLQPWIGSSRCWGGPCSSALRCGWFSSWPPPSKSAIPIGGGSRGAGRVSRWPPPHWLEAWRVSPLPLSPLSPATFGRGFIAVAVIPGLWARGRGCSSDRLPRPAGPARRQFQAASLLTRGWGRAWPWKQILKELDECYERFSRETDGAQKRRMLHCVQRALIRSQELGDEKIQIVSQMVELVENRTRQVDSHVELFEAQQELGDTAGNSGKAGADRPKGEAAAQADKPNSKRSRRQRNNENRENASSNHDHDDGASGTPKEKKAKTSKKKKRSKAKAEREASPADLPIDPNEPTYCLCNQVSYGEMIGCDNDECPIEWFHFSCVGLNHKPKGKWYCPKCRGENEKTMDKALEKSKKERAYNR
UniProt Q9BT40: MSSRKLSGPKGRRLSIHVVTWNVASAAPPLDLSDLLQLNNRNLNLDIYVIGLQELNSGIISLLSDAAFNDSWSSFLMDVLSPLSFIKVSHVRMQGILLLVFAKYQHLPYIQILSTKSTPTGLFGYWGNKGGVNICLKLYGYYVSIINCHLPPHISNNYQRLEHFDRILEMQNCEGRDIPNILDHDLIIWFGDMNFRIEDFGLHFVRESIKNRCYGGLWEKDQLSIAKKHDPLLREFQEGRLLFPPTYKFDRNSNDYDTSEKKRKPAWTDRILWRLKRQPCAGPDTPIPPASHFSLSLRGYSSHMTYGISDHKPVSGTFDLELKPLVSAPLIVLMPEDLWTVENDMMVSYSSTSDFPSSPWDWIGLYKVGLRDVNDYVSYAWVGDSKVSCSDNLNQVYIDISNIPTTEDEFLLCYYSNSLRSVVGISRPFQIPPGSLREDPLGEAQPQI
UniProt Q86U28: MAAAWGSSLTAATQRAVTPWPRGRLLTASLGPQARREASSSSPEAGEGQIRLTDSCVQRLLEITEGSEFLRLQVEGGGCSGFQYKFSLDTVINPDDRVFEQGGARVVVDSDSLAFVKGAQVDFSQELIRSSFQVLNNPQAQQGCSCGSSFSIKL
UniProt Q9NPH2: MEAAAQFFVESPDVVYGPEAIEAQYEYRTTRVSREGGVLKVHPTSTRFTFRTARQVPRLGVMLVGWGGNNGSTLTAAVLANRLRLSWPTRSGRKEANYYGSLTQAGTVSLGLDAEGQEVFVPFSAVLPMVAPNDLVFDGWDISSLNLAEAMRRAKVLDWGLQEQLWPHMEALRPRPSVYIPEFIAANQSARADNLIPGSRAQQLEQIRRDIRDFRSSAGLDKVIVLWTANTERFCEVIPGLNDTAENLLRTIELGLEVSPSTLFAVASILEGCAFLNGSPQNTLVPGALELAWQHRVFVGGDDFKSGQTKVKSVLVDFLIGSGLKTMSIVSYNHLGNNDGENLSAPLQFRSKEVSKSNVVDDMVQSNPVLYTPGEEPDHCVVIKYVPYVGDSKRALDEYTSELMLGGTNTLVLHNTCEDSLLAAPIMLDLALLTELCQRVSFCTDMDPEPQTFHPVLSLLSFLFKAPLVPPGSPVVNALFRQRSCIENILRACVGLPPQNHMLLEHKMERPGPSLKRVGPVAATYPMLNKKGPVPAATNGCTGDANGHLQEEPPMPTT
UniProt Q14573, whole entry, looked up: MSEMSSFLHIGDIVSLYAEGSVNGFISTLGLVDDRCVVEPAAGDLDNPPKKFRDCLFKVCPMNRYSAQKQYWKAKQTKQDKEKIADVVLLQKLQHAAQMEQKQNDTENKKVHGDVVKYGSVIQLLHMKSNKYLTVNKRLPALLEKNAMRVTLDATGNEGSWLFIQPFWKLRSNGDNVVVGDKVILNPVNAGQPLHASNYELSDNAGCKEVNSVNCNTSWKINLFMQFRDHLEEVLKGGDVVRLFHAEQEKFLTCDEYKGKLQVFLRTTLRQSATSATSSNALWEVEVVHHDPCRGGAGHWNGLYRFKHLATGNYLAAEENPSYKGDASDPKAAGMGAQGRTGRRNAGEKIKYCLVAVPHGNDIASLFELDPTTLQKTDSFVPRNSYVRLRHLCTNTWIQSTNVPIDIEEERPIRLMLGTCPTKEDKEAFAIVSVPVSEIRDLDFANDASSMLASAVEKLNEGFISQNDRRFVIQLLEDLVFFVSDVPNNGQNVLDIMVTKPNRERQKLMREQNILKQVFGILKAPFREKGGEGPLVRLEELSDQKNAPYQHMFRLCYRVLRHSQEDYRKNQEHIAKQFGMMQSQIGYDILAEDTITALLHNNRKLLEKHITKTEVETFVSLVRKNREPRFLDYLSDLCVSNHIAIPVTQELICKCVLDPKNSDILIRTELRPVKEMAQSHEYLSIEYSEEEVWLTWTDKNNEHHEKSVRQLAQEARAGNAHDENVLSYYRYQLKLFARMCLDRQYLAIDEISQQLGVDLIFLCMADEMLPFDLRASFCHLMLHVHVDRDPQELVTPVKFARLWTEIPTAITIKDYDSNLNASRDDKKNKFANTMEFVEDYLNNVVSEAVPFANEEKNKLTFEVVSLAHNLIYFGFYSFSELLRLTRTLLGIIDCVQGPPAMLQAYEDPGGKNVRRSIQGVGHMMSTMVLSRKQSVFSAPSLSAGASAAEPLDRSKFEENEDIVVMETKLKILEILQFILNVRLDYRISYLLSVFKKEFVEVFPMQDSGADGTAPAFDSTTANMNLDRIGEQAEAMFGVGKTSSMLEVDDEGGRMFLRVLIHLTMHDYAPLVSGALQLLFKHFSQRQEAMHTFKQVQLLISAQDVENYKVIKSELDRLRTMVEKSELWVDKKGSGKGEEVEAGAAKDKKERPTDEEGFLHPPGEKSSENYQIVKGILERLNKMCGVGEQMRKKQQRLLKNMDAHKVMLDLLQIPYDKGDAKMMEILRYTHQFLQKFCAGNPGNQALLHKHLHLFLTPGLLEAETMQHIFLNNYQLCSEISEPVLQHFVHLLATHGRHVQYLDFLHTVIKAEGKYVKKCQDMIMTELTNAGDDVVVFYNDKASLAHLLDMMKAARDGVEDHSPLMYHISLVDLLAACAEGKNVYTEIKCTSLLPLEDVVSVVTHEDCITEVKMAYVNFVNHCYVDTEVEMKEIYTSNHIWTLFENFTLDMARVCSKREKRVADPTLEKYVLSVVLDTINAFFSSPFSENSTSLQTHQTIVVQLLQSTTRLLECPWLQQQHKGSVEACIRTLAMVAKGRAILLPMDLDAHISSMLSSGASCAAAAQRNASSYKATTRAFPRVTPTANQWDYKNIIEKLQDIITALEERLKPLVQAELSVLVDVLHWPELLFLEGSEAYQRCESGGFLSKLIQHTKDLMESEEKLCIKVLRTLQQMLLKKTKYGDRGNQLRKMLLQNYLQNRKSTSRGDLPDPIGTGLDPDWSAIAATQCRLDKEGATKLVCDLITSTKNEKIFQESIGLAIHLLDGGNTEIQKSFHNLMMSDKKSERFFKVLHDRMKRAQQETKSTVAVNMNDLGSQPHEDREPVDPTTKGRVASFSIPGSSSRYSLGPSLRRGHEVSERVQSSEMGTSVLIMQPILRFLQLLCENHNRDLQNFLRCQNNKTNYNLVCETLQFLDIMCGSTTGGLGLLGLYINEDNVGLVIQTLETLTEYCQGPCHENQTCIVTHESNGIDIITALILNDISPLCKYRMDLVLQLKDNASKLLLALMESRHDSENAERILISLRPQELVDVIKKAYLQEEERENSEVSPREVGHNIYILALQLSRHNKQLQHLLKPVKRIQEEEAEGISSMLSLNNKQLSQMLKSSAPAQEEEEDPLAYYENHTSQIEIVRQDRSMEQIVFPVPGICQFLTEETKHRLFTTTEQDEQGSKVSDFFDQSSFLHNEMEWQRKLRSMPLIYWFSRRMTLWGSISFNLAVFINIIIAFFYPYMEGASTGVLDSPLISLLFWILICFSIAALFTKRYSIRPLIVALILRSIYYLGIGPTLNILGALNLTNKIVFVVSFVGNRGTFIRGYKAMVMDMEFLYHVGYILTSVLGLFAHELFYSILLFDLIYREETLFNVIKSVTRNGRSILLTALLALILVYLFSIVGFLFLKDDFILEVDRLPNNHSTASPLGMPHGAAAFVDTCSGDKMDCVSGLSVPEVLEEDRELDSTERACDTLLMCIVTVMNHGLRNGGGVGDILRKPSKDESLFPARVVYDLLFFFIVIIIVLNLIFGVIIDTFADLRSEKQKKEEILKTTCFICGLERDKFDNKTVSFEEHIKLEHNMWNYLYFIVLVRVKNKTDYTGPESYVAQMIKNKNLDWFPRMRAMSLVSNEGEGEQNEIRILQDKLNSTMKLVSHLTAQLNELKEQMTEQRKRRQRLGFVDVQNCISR
UniProt Q9NVM9, whole entry, looked up: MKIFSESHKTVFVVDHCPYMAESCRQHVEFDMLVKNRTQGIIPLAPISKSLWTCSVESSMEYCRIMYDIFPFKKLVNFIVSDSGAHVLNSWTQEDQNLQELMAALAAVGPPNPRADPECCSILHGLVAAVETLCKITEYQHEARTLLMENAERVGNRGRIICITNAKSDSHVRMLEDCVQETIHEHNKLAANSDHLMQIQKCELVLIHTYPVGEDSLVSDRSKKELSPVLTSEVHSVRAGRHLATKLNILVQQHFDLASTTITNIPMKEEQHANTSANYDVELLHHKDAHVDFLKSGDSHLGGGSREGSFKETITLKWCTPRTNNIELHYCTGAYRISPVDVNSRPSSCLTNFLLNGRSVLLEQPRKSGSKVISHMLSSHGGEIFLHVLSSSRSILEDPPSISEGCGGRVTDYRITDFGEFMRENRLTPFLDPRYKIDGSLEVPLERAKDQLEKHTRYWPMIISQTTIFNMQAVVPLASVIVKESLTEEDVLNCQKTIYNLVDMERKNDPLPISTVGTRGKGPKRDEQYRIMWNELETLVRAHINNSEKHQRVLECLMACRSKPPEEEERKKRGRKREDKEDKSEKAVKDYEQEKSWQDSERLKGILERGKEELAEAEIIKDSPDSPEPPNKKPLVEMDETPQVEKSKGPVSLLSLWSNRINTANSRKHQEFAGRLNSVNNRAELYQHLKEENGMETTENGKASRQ
UniProt P08648, whole entry, looked up: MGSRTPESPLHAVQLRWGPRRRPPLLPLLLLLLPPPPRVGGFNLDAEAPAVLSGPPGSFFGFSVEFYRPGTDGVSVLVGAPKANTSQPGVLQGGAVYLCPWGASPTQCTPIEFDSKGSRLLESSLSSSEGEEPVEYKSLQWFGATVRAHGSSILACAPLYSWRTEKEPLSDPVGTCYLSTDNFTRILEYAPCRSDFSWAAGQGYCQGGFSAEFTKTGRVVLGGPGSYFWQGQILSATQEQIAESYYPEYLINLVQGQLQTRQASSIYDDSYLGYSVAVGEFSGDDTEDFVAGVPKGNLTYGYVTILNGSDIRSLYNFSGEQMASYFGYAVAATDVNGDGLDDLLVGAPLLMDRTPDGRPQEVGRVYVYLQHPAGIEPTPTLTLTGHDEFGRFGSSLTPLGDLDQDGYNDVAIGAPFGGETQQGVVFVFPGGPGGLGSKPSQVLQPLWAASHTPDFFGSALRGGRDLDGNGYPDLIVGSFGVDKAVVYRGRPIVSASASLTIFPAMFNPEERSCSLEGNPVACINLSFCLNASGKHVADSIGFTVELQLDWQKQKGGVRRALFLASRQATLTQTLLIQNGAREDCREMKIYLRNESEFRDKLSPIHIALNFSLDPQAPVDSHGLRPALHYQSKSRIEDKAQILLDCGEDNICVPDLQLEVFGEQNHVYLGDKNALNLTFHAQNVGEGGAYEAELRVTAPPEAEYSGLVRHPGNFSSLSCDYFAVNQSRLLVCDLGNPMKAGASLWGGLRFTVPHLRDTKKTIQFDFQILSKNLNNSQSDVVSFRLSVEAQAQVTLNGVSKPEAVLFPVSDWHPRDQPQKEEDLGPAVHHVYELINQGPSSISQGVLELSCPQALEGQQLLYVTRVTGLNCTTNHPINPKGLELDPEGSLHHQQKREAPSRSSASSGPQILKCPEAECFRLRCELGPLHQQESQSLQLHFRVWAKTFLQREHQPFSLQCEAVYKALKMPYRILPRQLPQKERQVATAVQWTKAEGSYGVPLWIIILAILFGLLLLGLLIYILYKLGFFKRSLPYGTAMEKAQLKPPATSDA

Compound: c1cn2cc(-c3ccc4cn[nH]c4c3)nc(Nc3ccc(N4CCOCC4)cc3)c2n1 [entospletinib]
Assay: log2 fold change, soluble protein after heating vs DMSO (PISA); higher = thermal stabilisation; K562 cells, 10 uM, 30 min; active = over 0.2 and 3.5 SD of the protein, either way, in both replicates (recomputed)
Summary of the method: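 K562 cells at 2×10^6 cells/mL were treated for 30 min with 10 μM compound, and aliquots were heated for 3 min over 48°C-58°C before pooling. Extraction used PBS with 0.5% NP-40 at 4°C, and soluble protein was the supernatant after 21,000xg for 90 min, measured by TMTpro 16plex LC-MS/MS with channel sums equalised. Thermal stability values, relative to control samples and from duplicates, are log2 fold changes.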

log2 fold change, inactive:
IGF2BP3 (UniProt O00425) 0.269, ITIH1 (UniProt P19827) 0.021, INTS3 (UniProt Q68E01) -0.019, INPPL1 (UniProt O15357) 0.012, IRF2BP1 (UniProt Q8IU81) 0.046, IMPA2 (UniProt O14732) 0.089, IST1 isoform 5 (UniProt P53990) -0.009, IRF2BP2 (UniProt Q7Z5L9) 0.019, IMMP2L (UniProt Q96T52) -0.041, IKBKB (UniProt O14920) 0.179, IQSEC2 (UniProt Q5JU85) -0.164, INTS11 (UniProt Q5TA45) 0.012, IPO8 (UniProt O15397) 0.265, ISG15 (UniProt P05161) -0.047, IL1RAP isoform 5 (UniProt Q9NPH3) -0.051, ING1 (UniProt Q9UK53) -0.069, INPP4A (UniProt Q96PE3) -0.015, IGSF8 (UniProt Q969P0) 0.084, IMPDH1 isoform 6 (UniProt P20839) -0.011, INTS14 (UniProt Q96SY0) -0.023, INPP5K (UniProt Q9BT40) 0.15, ISCA2 (UniProt Q86U28) 0.011, IPO5 isoform 3 (UniProt O00410) 0.031, ISYNA1 (UniProt Q9NPH2) 0.036, ITGB5 (UniProt P18084) -0.006, ITPR3 (UniProt Q14573) -0.156, INTS13 (UniProt Q9NVM9) 0.005, ITGA5 (UniProt P08648) -0.007, ISOC2 (UniProt Q96AB3) 0.065
